Reference: the supplement of paper PMC4604168 (melanoma cell lines)
The other results are listed elsewhere or left out. Many values rest on one well or one pass, so single values are uncertain.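 Imaging used 1,536-well plates; nuclei positive for cleaved PARP by antibody were divided by total DNA-stained nuclei to yield the apoptosis fraction. Doses for screening kept most cells viable, and cell lines differ markedly in resting and induced cleaved-PARP levels.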

What was measured:
Test in all cases: cleaved PARP positive nuclei fraction relative to DMSO control; melanoma cells; higher = more apoptosis
Conditions in all cases: library dose: low library concentration; 72 h
501Mel = test system: 501Mel
A101D = test system: A101D
A2058 = test system: A2058
A375 = test system: A375
C32 = test system: C32
CBRC008 = test system: CBRC008 (line from a melanoma biopsy)
CBRC014 = test system: CBRC014 (line from a melanoma biopsy)
CBRC016 = test system: CBRC016 (line from a melanoma biopsy)
CBRC017 = test system: CBRC017 (line from a melanoma biopsy)
CBRC034 = test system: CBRC034 (line from a melanoma biopsy)
COLO792 = test system: COLO792
COLO800 = test system: COLO800
COLO829 = test system: COLO829
G361 = test system: G361
IPC-298 = test system: IPC-298
IST-MEL1 = test system: IST-MEL1
LB2518-MEL = test system: LB2518-MEL
LOXIMVI = test system: LOXIMVI
MEL-HO = test system: MEL-HO
CBRC013 = test system: CBRC013 (line from a melanoma biopsy)

| Compound | cleaved PARP positive nuclei fraction (501Mel) | cleaved PARP positive nuclei fraction (A101D) | cleaved PARP positive nuclei fraction (A2058) | cleaved PARP positive nuclei fraction (A375) | cleaved PARP positive nuclei fraction (C32) | cleaved PARP positive nuclei fraction (CBRC008) | cleaved PARP positive nuclei fraction (CBRC014) | cleaved PARP positive nuclei fraction (CBRC016) | cleaved PARP positive nuclei fraction (CBRC017) | cleaved PARP positive nuclei fraction (CBRC034) | cleaved PARP positive nuclei fraction (COLO792) | cleaved PARP positive nuclei fraction (COLO800) | cleaved PARP positive nuclei fraction (COLO829) | cleaved PARP positive nuclei fraction (G361) | cleaved PARP positive nuclei fraction (IPC-298) | cleaved PARP positive nuclei fraction (IST-MEL1) | cleaved PARP positive nuclei fraction (LB2518-MEL) | cleaved PARP positive nuclei fraction (LOXIMVI) | cleaved PARP positive nuclei fraction (MEL-HO) | cleaved PARP positive nuclei fraction (CBRC013) |
| --- | --- | --- | --- | --- | --- | --- | --- | --- | --- | --- | --- | --- | --- | --- | --- | --- | --- | --- | --- | --- |
| CO[C@H]1C[C@@H]2CC[C@@H](C)[C@@](O)(O2)C(=O)C(=O)N2CCCC[C@H]2C(=O)O[C@H]([C@H](C)C[C@@H]2CC[C@@H](OCCO)[C@H](OC)C2)CC(=O)[C@H](C)/C=C(\C)[C@@H](O)[C@@H](OC)C(=O)[C@H](C)C[C@H](C)/C=C/C=C/C=C/1C [everolimus] + Nc1nc(F)nc2c1ncn2[C@@H]1O[C@H](CO)[C@@H](O)[C@@H]1O [fludarabine] (first compound 0.02 µM, partner dose 0.2 µM) | 5660% | 133% | 98.9% | 5490% | 50.6% | 127% | 100% | 158% | 244% | 40.6% | 169% | 141% | 106% | 288% | 66.7% | 178% | 133% | 21.8% | 183% |  |
| Cn1c(=O)n(-c2ccc(C(C)(C)C#N)cc2)c2c3cc(-c4cnc5ccccc5c4)ccc3ncc21 + Cc1nc(Nc2ncc(C(=O)Nc3c(C)cccc3Cl)s2)cc(N2CCN(CCO)CC2)n1 [dasatanib] (first compound 0.004 µM, partner dose 0.004 µM) | 161% | 175% | 106% | 148% | 88.7% | 22% | 127% | 70.6% | 115% | 48.3% | 153% | 186% | 98.6% | 122% | 147% | 147% | 103% | 184% | 51.5% |  |
| Nc1nc(F)nc2c1ncn2[C@@H]1O[C@H](CO)[C@@H](O)[C@@H]1O [fludarabine] + OCCn1cc(-c2cnc3nnn(Cc4ccc5ncccc5c4)c3n2)cn1 [PF04217903] (first compound 0.2 µM, partner dose 1 µM) | 1930% | 88.4% | 106% | 8270% | 149% | 130% | 87.3% | 108% | 218% |  | 195% | 59.4% | 186% | 112% | 48.6% | 53.2% | 67.6% | 24% | 48.8% | 331% |
| O=C(O)c1ccc2c(c1)nc(Nc1cccc(Cl)c1)c1ccncc12 + NC(=O)Nc1cc(-c2cccc(F)c2)sc1C(=O)N[C@H]1CCCNC1 [AZD7762] (first compound 0.4 µM, partner dose 0.02 µM) | 139% | 162% | 74.5% | 179% | 232% | 46.6% | 203% | 75.4% | 205% |  | 88% | 158% | 154% | 132% | 32.1% | 94.2% | 62.2% | 167% | 122% | 71.5% |
| Cn1c(=O)n(-c2ccc(C(C)(C)C#N)cc2)c2c3cc(-c4cnc5ccccc5c4)ccc3ncc21 + Nc1nc(F)nc2c1ncn2[C@@H]1O[C@H](CO)[C@@H](O)[C@@H]1O [fludarabine] (first compound 0.004 µM, partner dose 0.2 µM) | 12000% | 310% | 22.5% | 4730% | 81.6% | 91.5% | 95.5% | 87.7% | 109% | 67.9% | 120% | 103% | 136% | 128% | 96.8% | 182% | 103% | 274% | 22.2% |  |
| CC(C)C[C@H](NC(=O)[C@H](Cc1ccccc1)NC(=O)c1cnccn1)B(O)O [Bortezomib] + OCCn1cc(-c2cnc3nnn(Cc4ccc5ncccc5c4)c3n2)cn1 [PF04217903] (first compound 0.001 µM, partner dose 1 µM) | 210% | 326% | 94.2% | 91.2% | 97.7% | 506% | 147% | 152% | 188% |  | 56.2% | 107% | 102% | 1100% | 106% | 236% | 429% | 220% | 105% | 133% |
| CN1CCN(c2ccc3nc(-c4c(N)c5c(F)cccc5[nH]c4=O)[nH]c3c2)CC1 [Dovitinib] + C=CCn1c(=O)c2cnc(Nc3ccc(N4CCN(C)CC4)cc3)nc2n1-c1cccc(C(C)(C)O)n1 [MK1775] (first compound 0.1 µM, partner dose 0.02 µM) | 101% | 58.6% | 41.6% | 264% | 48.6% | 110% | 115% | 156% | 103% |  | 95.7% | 69.3% | 203% | 48.7% | 47.3% | 48.8% | 65.4% | 124% | 149% | 123% |
| C[C@@H](Oc1cc(-c2cnn(C3CCNCC3)c2)cnc1N)c1c(Cl)ccc(F)c1Cl [Crizotinib] + OCCn1cc(-c2cnc3nnn(Cc4ccc5ncccc5c4)c3n2)cn1 [PF04217903] (first compound 0.2 µM, partner dose 1 µM) | 154% | 122% | 215% | 190% | 169% | 106% | 86.8% | 161% | 96.1% |  | 137% | 51.4% | 135% | 24.8% | 96.4% | 396% | 52.1% | 96.7% | 93.9% | 97.7% |
